PubChem BioAssay AID602196, INSERM – 2012
Shown is a random part of about 23,000 reagents. Of all reagents, 455 (2%) were called active. 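Active includes both protection and sensitisation; some change values fall well beyond the stated -50 to +50 range.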 Further read-outs or replicates are left out here. The record does not give: the amount of reagent.

Assay: 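Modifiers of cisplatin sensitivity in A549 cells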
Cells: human A549 lung cancer cells
Reagent: siRNA pair against human genes
Time to read-out: 48 h transfection before cisplatin; time from cisplatin to read-out not stated
Conditions: cisplatin at a dose killing half of control-siRNA cells; exact dose and duration not given
Measurement: 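Shift in cisplatin death relative to control siRNA, from -50 (all cells die) to +50 (no cells die); siRNAs harmful on their own scored 0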
Reading the numbers: two-siRNA summed score (-2 to +2): higher = both siRNAs protect from cisplatin killing; -2 means both sensitise; mean protection from cisplatin (shift in death): higher = protection from cisplatin killing
Call rule: 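Each siRNA scores 0 if harmful alone by LDH or WST-1, otherwise +1 if it reduces and -1 if it increases cisplatin killing; a gene is active when both siRNAs agree (sum +2 or -2)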
Meaning of the calls: active = both siRNAs shift cisplatin killing the same way; inactive = no consistent shift, or siRNA harmful alone

target | PubChem SID | two-siRNA summed score (-2 to +2) | mean protection from cisplatin (shift in death) (%) | activity call
KRAS | SID131501624 | -1 | -8.6 | inactive
TIMM10B | SID131512358 | 0 | 5.4 | inactive
SCIN | SID131517203 | 0 | 12.7 | inactive
CREBRF | SID131504810 | 0 | -4.4 | inactive
EML2 | SID131512345 | 0 | 5.4 | inactive
STON1-GTF2A1L | SID131506619 | 0 | -1.2 | inactive
LPCAT1 | SID131504175 | 0 | -6.3 | inactive
TTLL12 | SID131513637 | 0 | 6.8 | inactive
BCL2L11 | SID131516070 | 0 | 10.2 | inactive
MAST3 | SID131509682 | 0 | 2.4 | inactive
ERGIC3 | SID131510099 | 0 | 2.9 | inactive
ANKZF1 | SID131504885 | 0 | -4.3 | inactive
MCOLN3 | SID131518153 | 0 | 16.9 | inactive
KIF2C | SID131521063 | 1 | 12.1 | inactive
NCOA6 | SID131503003 | 0 | -16.2 | inactive
ZNF200 | SID131511011 | 0 | 3.9 | inactive
TRPS1 | SID131512103 | 0 | 5.1 | inactive
TANC1 | SID131512120 | 0 | 5.1 | inactive
UHRF1 | SID131507534 | 0 | 0 | inactive
LOC343484 | SID131519760 | 1 | 7.3 | inactive
PRR12 | SID131515162 | 0 | 8.7 | inactive
TAFA4 | SID131514707 | 0 | 8.2 | inactive
MARCHF1 | SID131500906 | -1 | -14.4 | inactive

An excerpt from above, limited to “two-siRNA summed score (-2 to +2)”:
EML2 [SID131512345] = 0
STON1-GTF2A1L [SID131506619] = 0
